Experimental data: PubChem BioAssay AID504808 (Drosophila RNAi Screening Center, 2011)
Test: 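Genes whose loss lifts activity of an E2F-responsive reporter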 (primary screen). System: Drosophila S2 cells. Reagents: long dsRNA against Drosophila genes. Measured: 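Dual luciferase plate measurements; E2F-specific signal taken as firefly over Renilla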. Scale: E2F firefly: higher = more E2F reporter activity; Renilla normaliser: higher = more normaliser reporter signal. Call rule: 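a knock-down counted as active when the firefly/Renilla E2F signal rose above 50%, a threshold chosen arbitrarily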.
The screen tested about 21,000 reagents; shown is a random part of those that have a named target and a result. Over the whole deposit, 18 (0.084%) are marked active. 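Raw counts without plate normalisation, one of two replicates; the ratio scores behind the calls were not deposited.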 A number with no mark means an inactive call. Names joined by + are all predicted targets of the reagent. The record does not give: the amount of reagent, the time to read-out.

| gene | amplicon | E2F firefly, rep 1 | Renilla normaliser, rep 1 |
| --- | --- | --- | --- |
| CG13096 | DRSC02198 | 1.27e5 | 4909 |
| AP-1sigma (Adaptor Protein complex 1, sigma subunit) | DRSC15899 | 69102 | 3083 |
| CG13102 | DRSC02202 | 1.45e5 | 4927 |
| Cep89 (Centrosomal protein 89kDa) | DRSC07110 | 95202 | 3908 |
| Gpdh2 (Glycerol-3-phosphate dehydrogenase 2) | DRSC04346 | 1.06e5 | 4692 |
| CG10298 | DRSC12522 | 1.36e5 | 6093 |
| Yip1d1 (Yip1 domain-containing 1) | DRSC02166 | 1.03e5 | 4607 |
| HGTX | DRSC09319 | 1.43e5 | 3786 |
| HGTX | DRSC11181 | 1.82e5 | 8793 |
| CG13215 | DRSC06337 | 94916 | 4289 |
| CG2767 | DRSC15451 | 72179 | 3560 |
| Ugt36A1 (UDP-glycosyltransferase family 36 member A1) | DRSC00748 | 1.55e5 | 5534 |
| CG8188 | DRSC20090 | 1.42e5 | 7451 |
| Lip4 (Lipase 4) | DRSC02930 | 1.46e5 | 5051 |
| Rdh (Red herring) | DRSC08063 | 1.03e5 | 4140 |
| Rdh (Red herring) | DRSC08434 | 94769 | 4143 |
| CG31464 | DRSC14345 | 1.13e5 | 5920 |
| Mi-2 + Su(Tpl) | DRSC09640 | 86765 | 3918 |
| beta-PheRS (Phenylalanyl-tRNA synthetase, beta-subunit) | DRSC15859 | 70169 | 3548 |
| CG4716 | DRSC06884 | 2946 | 193 |
| Ankle2 | DRSC20105 | 1.80e5 | 5241 |
| Ankle2 | DRSC20106 | 1.57e5 | 7181 |
| CG15209 | DRSC19655 | 1.06e5 | 6125 |
| Dbp21E2 (DEAD box protein 21E2) | DRSC00616 | 76700 | 3906 |
| Dph3 (Diphthamide biosynthesis 3) | DRSC14923 | 1.41e5 | 5598 |
| His3.3A (Histone H3.3A) | DRSC03343 | 1.20e5 | 20312 |
| CG12768 | DRSC11680 | 1.24e5 | 5534 |
| Cpr47Ef (Cuticular protein 47Ef) | DRSC06336 | 98279 | 3810 |
| sPLA2 (secretory Phospholipase A2) | DRSC06041 | 1.45e5 | 4731 |
| CG6153 | DRSC02935 | 76908 | 3357 |
| Cpr64Ab (Cuticular protein 64Ab) | DRSC08461 | 1.11e5 | 4223 |
| CG13193 | DRSC06318 | 1.00e5 | 3812 |
| Sptz (Spastizin) | DRSC15758 | 1.39e5 | 6760 |
| emc (extra macrochaetae) | DRSC08715 | 54598 | 3464 |
| CG12069 | DRSC14470 | 1.19e5 | 5974 |
| grass (Gram-positive Specific Serine protease) | DRSC15911 | 1.21e5 | 6668 |
| mute (muscle wasted) | DRSC06562 | 1.29e5 | 5043 |
| CG5171 | DRSC02823 | 89180 | 4257 |
| RhoGAP93B (Rho GTPase activating protein at 93B) | DRSC15488 | 1.42e5 | 6884 |
| CG7781 | DRSC03068 | 1.42e5 | 4944 |
| scpr-A + scpr-C + scpr-B | DRSC15715 | 1.48e5 | 6680 |
| ppk29 (pickpocket 29) | DRSC04205 | 1.12e5 | 4638 |

Laid out differently: 8 of the entries above.
Ugt36A1 (UDP-glycosyltransferase family 36 member A1) [DRSC00748] → E2F firefly, rep 1: 1.55e5; Renilla normaliser, rep 1: 5534
CG8188 [DRSC20090] → E2F firefly, rep 1: 1.42e5; Renilla normaliser, rep 1: 7451
Lip4 (Lipase 4) [DRSC02930] → E2F firefly, rep 1: 1.46e5; Renilla normaliser, rep 1: 5051
Rdh (Red herring) [DRSC08063] → E2F firefly, rep 1: 1.03e5; Renilla normaliser, rep 1: 4140
Rdh (Red herring) [DRSC08434] → E2F firefly, rep 1: 94769; Renilla normaliser, rep 1: 4143
CG31464 [DRSC14345] → E2F firefly, rep 1: 1.13e5; Renilla normaliser, rep 1: 5920
Mi-2 + Su(Tpl) [DRSC09640] → E2F firefly, rep 1: 86765; Renilla normaliser, rep 1: 3918
beta-PheRS (Phenylalanyl-tRNA synthetase, beta-subunit) [DRSC15859] → E2F firefly, rep 1: 70169; Renilla normaliser, rep 1: 3548

Next entries follow.
| gene | amplicon | E2F firefly, rep 1 | Renilla normaliser, rep 1 |
| --- | --- | --- | --- |
| Yif1 (Yip1-interacting factor 1) | DRSC15817 | 1.25e5 | 6530 |
| Lcp65APsi (pseudo) | DRSC08795 | 1.25e5 | 3526 |
| Lcp65APsi (pseudo) | DRSC10342 | 99505 | 4230 |
| Vta1 (Vesicle trafficking 1) | DRSC08604 | 98563 | 4672 |
| bam (bag of marbles) | DRSC16907 | 1.02e5 | 6522 |
| png (pan gu) | DRSC18582 | 77422 | 4535 |
| sds22 | DRSC17052 | 1.24e5 | 7186 |
| CG12259 | DRSC14486 | 95231 | 5179 |
| ATP8A (ATPase 8A) | DRSC05421 | 1.25e5 | 4820 |
| ATP8A (ATPase 8A) | DRSC06643 | 2762 | 216 |
| ATP8A (ATPase 8A) | DRSC06644 | 1.02e5 | 5057 |
| Mlc-c (Myosin light chain cytoplasmic) | DRSC18683 | 8670 | 828 |
| CG42233 | DRSC14328 | 1.28e5 | 5471 |
| CG42233 | DRSC15416 | 68518 | 4473 |
| h-cup + Rbp | DRSC14990 | 1.09e5 | 6942 |
| CG15767 | DRSC18073 | 89839 | 5264 |
| SF1 (Splicing factor 1) | DRSC16844 | 1.10e5 | 5900 |
| aly (always early) | DRSC08707 | 1.05e5 | 4142 |
| yip7 (yippee interacting protein 7) | DRSC11410 | 94278 | 3735 |
| CG9184 | DRSC08636 | 93889 | 4262 |
| Cyt-c1 (Cytochrome c1) | DRSC10447 | 80571 | 3820 |
| rno (rhinoceros) | DRSC08584 | 96213 | 3789 |
| chn (charlatan) | DRSC06086 | 2992 | 204 |
| omd (oocyte maintenance defects) | DRSC16507 | 1.03e5 | 236 |
| CG18094 | DRSC02655 | 1.06e5 | 4057 |
| sub (subito) | DRSC06125 | 81039 | 3456 |
| CG31974 | DRSC00522 | 1.34e5 | 5526 |
| CG6083 | DRSC10580 | 99284 | 5199 |
| ais (aramis) | DRSC10523 | 67117 | 3294 |
| Cyp4g15 (Cytochrome P450 4g15) | DRSC20240 | 1.57e5 | 6868 |
| cass (cassowary) | DRSC01850 | 85996 | 3653 |
| Slimp (Seryl-tRNA synthetase-like insect mitochondrial protein) | DRSC13656 | 74589 | 2642 |
| CG6431 | DRSC02956 | 1.61e5 | 5232 |
| CG4592 | DRSC02761 | 91490 | 3889 |
| D19A | DRSC11133 | 67376 | 3453 |
| PIP82 | DRSC18694 | 1.26e5 | 6948 |
| CG13716 | DRSC08325 | 93753 | 4021 |
| Gr43a (Gustatory receptor 43a) | DRSC06658 | 1.35e5 | 4726 |
| CG7420 | DRSC00704 | 79541 | 3088 |
| Cox17 (Cytochrome c oxidase copper chaperone COX17) | DRSC20145 | 2.33e5 | 6309 |
| CG13043 | DRSC09924 | 1.59e5 | 7970 |
| l(2)09851 (lethal (2) 09851) | DRSC04858 | 1.13e5 | 4277 |
